Assay results taken from publication PMC11078946.
Results are given in words; binding and its absence hold for the method and conditions named. Binding seen in cells or lysates may run through a third protein. Some entries that bind do so weakly or less than the wild type. Where a sequence is shown, tags or fusion partners need not be part of it.

T1: Flag-tagged SEPT7 (human) (UniProt Q16181)
T1 sequence: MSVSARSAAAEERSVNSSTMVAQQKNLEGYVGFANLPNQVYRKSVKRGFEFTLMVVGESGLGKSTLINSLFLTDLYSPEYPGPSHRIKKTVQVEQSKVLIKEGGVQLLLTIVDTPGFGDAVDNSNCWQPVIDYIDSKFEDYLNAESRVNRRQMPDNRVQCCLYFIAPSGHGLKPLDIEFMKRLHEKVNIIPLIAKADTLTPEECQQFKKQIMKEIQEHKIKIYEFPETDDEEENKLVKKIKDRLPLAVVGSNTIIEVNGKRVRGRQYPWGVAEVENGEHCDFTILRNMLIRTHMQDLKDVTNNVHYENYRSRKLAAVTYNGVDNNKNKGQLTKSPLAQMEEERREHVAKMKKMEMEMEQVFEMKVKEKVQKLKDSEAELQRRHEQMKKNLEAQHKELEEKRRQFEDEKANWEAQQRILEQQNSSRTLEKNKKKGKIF

T2: Flag-tagged SEPT2 (human) (UniProt Q15019)
T2 sequence: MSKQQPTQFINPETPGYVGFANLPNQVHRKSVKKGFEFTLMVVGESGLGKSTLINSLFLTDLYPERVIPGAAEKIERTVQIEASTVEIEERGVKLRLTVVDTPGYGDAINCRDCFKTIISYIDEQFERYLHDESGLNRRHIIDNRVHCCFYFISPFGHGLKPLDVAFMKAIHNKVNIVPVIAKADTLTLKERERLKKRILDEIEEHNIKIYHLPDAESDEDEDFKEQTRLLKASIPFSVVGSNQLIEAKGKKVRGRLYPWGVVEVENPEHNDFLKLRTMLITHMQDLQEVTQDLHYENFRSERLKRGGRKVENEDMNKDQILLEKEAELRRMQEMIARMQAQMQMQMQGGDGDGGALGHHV

T3: Flag-tagged SEPT6 (human), Q14141
T3 chain: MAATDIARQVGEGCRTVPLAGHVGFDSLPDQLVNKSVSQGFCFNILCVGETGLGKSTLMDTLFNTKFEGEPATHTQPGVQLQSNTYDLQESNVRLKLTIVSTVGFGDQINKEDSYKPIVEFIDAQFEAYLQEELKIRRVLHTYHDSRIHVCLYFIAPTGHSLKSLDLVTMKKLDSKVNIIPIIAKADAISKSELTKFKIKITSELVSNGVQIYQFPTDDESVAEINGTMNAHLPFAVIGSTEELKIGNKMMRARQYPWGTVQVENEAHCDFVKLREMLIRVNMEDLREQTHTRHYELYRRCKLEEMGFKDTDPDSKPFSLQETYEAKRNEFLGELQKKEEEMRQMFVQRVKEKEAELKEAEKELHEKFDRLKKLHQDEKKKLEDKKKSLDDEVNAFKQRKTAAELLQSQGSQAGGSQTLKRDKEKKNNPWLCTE

B1: SEPT9 (protein, UniProt Q9UHD8 1-586)
chain: MKKSYSGGTRTSSGRLRRLGDSSGPALKRSFEVEEVETPNSTPPRRVQTPLLRATVASSTQKFQDLGVKNSEPSARHVDSLSQRSPKASLRRVELSGPKAAEPVSRRTELSIDISSKQVENAGAIGPSRFGLKRAEVLGHKTPEPAPRRTEITIVKPQESAHRRMEPPASKVPEVPTAPATDAAPKRVEIQMPKPAEAPTAPSPAQTLENSEPAPVSQLQSRLEPKPQPPVAEATPRSQEATEAAPSCVGDMADTPRDAGLKQAPASRNEKAPVDFGYVGIDSILEQMRRKAMKQGFEFNIMVVGQSGLGKSTLINTLFKSKISRKSVQPTSEERIPKTIEIKSITHDIEEKGVRMKLTVIDTPGFGDHINNENCWQPIMKFINDQYEKYLQEEVNINRKKRIPDTRVHCCLYFIPATGHSLRPLDIEFMKRLSKVVNIVPVIAKADTLTLEERVHFKQRITADLLSNGIDVYPQKEFDEDSEDRLVNEKFREMIPFAVVGSDHEYQVNGKRILGRKTKWGTIEVENTTHCEFAYLRDLLIRTHMQNIKDITSSIHFEAYRVKRLNEGSSAMANGMEEKEPEAPEM
B2: SEPT9, Q9UHD8 1-586 (protein)
chain: MKKSYSGGTRTSSGRLRRLGDSSGPALKRSFEVEEVETPNSTPPRRVQTPLLRATVASSTQKFQDLGVKNSEPSARHVDSLSQRSPKASLRRVELSGPKAAEPVSRRTELSIDISSKQVENAGAIGPSRFGLKRAEVLGHKTPEPAPRRTEITIVKPQESAHRRMEPPASKVPEVPTAPATDAAPKRVEIQMPKPAEAPTAPSPAQTLENSEPAPVSQLQSRLEPKPQPPVAEATPRSQEATEAAPSCVGDMADTPRDAGLKQAPASRNEKAPVDFGYVGIDSILEQMRRKAMKQGFEFNIMVVGQSGLGKSTLINTLFKSKISRKSVQPTSEERIPKTIEIKSITHDIEEKGVRMKLTVIDTPGFGDHINNENCWQPIMKFINDQYEKYLQEEVNINRKKRIPDTRVHCCLYFIPATGHSLRPLDIEFMKRLSKVVNIVPVIAKADTLTLEERVHFKQRITADLLSNGIDVYPQKEFDEDSEDRLVNEKFREMIPFAVVGSDHEYQVNGKRILGRKTKWGTIEVENTTHCEFAYLRDLLIRTHMQNIKDITSSIHFEAYRVKRLNEGSSAMANGMEEKEPEAPEM

Columns and labels:
Experiment in all cases: co-IP
[1] = target: T1, Flag-tagged SEPT7 (human)
[2] = target: T2, Flag-tagged SEPT2 (human)
[3] = target: T3, Flag-tagged SEPT6 (human), Q14141; conditions: remark: other sources report otherwise

| Binder | binding [1] | binding [2] | binding [3] |
| --- | --- | --- | --- |
| B1 | binds | binds | – |
| B2 | – | – | binds |
